Measurements published in patent publication US20080124335A1 (NATIONAL CEREBRAL AND CARDIOVASCULAR CENTER, published 2008).
No constants are given. Whether binding was seen depends on the method and setting. Some entries that bind do so weakly or less than the wild type.

Sequences of proteins named here, by UniProt entry; tags and fusion partners are left off. A change or cut given only in a name is not applied to a line headed by its entry.
UniProt Q9GZQ4: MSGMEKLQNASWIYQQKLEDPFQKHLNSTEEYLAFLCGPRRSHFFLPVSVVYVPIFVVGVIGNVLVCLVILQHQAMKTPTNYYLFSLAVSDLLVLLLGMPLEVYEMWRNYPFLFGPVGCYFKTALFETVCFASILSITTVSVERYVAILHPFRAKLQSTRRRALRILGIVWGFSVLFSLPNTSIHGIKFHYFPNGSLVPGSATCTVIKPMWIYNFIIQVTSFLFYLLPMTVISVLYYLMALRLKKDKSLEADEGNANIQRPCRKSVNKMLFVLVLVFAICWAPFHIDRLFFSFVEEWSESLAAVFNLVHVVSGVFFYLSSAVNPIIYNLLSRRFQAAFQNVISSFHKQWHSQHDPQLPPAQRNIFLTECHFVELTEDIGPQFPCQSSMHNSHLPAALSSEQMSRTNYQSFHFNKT

Target: human TGR1 (human, UniProt Q9GZQ4 1-415)
Experiment: conclusion drawn from the receptor binding test and the calcium assay

binding: binds
B1: human neuromedin S (peptide)
peptide: ILQRGSGTAAVDFTKKDHTATWGRPFFLFRPRN
